## Primary screen of a compound library

The values are deposited in ChEMBL (CHEMBL3988442, “University of Dundee, Small-Polar-MMV Screening Library” (2021)).

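Phenotypic screen: M. tuberculosis growth, cholesterol and DPPC medium, 4 days; the read-out is not stated. Concentration: 50 µM. Direction is inferred from retests: higher values go with more growth inhibition. Of about 69,000 compounds tested this way, about 370 (0.54%) reached 50% or more in at least one test.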

The filed quantity is “Percent Effect” (%).
How 0% and 100% were set is not recorded. Most values in the screen are low, and negative values occur.
The compounds are a random part of those screened.
Two or more numbers in one place are separate tests of the same structure; such repeats can differ widely.

- Cc1ccc(S(=O)(=O)NC(=O)c2cccc3c2OCCO3)c(C)c1 : -13.04%
- CN1CCN(Cc2cccc(NCc3ncc[nH]3)c2)CC1 : 4.121%
- O=C(NCc1ccccc1CN1CCC(O)CC1)Nc1ccncc1 : -28.25%
- COC(=O)C1CCN(C(=O)Nc2cc(-n3cccc3)ccc2F)CC1 : 3.145%
- COCCN(CC1CC1)c1nc(CCN)nc2sc(C)c(C)c12 : 14.24%
- N#Cc1ccc(F)c(CN2CCNC(=O)C2c2cccs2)c1 (configuration not stated) : -12.72%
- CSCC1CCN(c2nc(N)ncc2C)CC1 : 4.494%
- COC(=O)CS(=O)(=O)CCC(=O)N1CCCC1c1ccsc1 (configuration not stated) : 13.53%
- O=C(Cc1ccc2c(c1)CCO2)N1CCCCC1Cn1cccn1 (configuration not stated) : 6.626%
- O=C(O)C(F)(F)F.[H][C@@]12CCN(C3CCOCC3)[C@]1([H])CC[C@H](C(=O)N1CCOCC1)O2 : 3.182%
- COc1cc(N[C@@H](Cc2ccccc2)C(N)=O)ncn1 : -8.575% and -19.57%
- COc1ccc(CNC2CCCN(Cc3noc(C)n3)C2)cc1F (configuration not stated) : -17.38%
- Cc1cc(C)n(C2CN(Cc3noc(-c4ccccc4)n3)C2)n1 : -18.16%
- O=S(=O)(c1ccc(Cl)s1)N1CCN(Cc2nc(-c3ccco3)cs2)CC1 : -0.4432%
- COc1nc2c(cc1C(=O)NCc1nc(CSC)no1)CCC2 : 10.65%
- Cc1cc(C(=O)N2CCC3(CCN3Cc3ccc(F)cc3)C2)no1.O=C(O)C(F)(F)F (configuration not stated) : 11.69%
- COCCN1CCC2(CC1)CC(NCc1cncn1C)c1ccccc12.O=C(O)C(F)(F)F.O=C(O)C(F)(F)F (configuration not stated) : -21.3%
- c1cc(CN2CCC(CCn3cccn3)CC2)cc(Cn2cccn2)c1 : -6.902% and -5.925%
- CCc1cc(NC2CCN(Cc3ccccc3F)CC2)n2nccc2n1 : -15.03%
- CC[C@@H](c1ccccc1)n1c(CCN)n[nH]c1=O : 3.735%
- O=C(O)C(F)(F)F.[H][C@@]12CCN(c3nncs3)[C@@]1([H])CCN2C(=O)NC1CC1 : 7.352%
- COc1ccc(CNC2CCN(CCc3ccncc3)CC2)cc1O : -0.9212% and 4.675%
- CC(C)CC(NCc1ccsc1)c1ccccn1 (configuration not stated) : 6.062%
- COCCN1CCCC2(CCN(c3ccsc3)C2=O)C1.O=C(O)C(F)(F)F (configuration not stated) : -16.05% and -14.93%
- Cc1ccc(C)c(OCc2cc(C(=O)N(C)CC(O)CO)no2)c1 (configuration not stated) : 4.209% and -0.6858%
- [H][C@]12CCC(=O)N(c3ccccc3)[C@@]1([H])CCN2C(=O)C1CC=CC1 : -24.64%
- CN1CCOC(CNCCOc2ccc(C#N)cc2)C1 (configuration not stated) : -11.15% and -3.97%
- O=S1(=O)NC(c2ccnc(N3CCOCC3)n2)=Nc2ccccc21 : 3.783%
- Cc1ccc(CN(C)c2cc(N3CCCC3CO)ncn2)s1 (configuration not stated) : 9.833%
- O=c1cnc2ccccc2n1CCCn1ccnc1 : -14.92%
- CN1CCC2(CCN(S(=O)(=O)c3ccc(-c4cnco4)s3)CC2)C1 : 13.41%
- CO[C@H]1COCCN(C(=O)c2ccc(F)cc2)C1 : -14.73%
- CC(C)n1ncc2cc(NC(=O)N3CCC(C(N)=O)C3)cnc21 (configuration not stated) : -26.7%
- CCn1[nH]c(C)c2c(C(F)(F)F)cc(=O)nc1-2 : -7.088%
- Cc1ccc(N2CCCC(NCc3ccncc3)C2)nn1 (configuration not stated) : -16.57%
- Cn1c(C(F)(F)F)nn(CCNC(=O)NCc2ccccc2)c1=O : -14.7%
- CCN(CC1CCCO1)C(=O)Nc1cccc(N2CCOCC2)c1 (configuration not stated) : 4.942% and -1.572%

4 of the entries, repeated:

{"compound": "COc1ccc(CNC2CCN(CCc3ccncc3)CC2)cc1O", "Percent Effect": "-0.9212 and 4.675"}
{"compound": "COCCN1CCC2(CC1)CC(NCc1cncn1C)c1ccccc12.O=C(O)C(F)(F)F.O=C(O)C(F)(F)F", "stereo": "configuration not stated", "Percent Effect": -21.3}
{"compound": "CC(C)CC(NCc1ccsc1)c1ccccn1", "stereo": "configuration not stated", "Percent Effect": 6.062}
{"compound": "COc1nc2c(cc1C(=O)NCc1nc(CSC)no1)CCC2", "Percent Effect": 10.65}